According to PMC5875850:
For some assays here: Weaker means in comparison with the reference protein, sequence or condition of that experiment. For some assays here: For at least one entry, the source does not settle the construct or the ends of the probe. For some assays here: At least one verdict rests on a figure or table, not on a statement of the authors.

The chains behind the UniProt entries cited, without tags or fusion partners. Residues count along the entry.
UniProt Q9HC16, 191-384 P210R/L234K/C243A/F310K/C321A/C356A: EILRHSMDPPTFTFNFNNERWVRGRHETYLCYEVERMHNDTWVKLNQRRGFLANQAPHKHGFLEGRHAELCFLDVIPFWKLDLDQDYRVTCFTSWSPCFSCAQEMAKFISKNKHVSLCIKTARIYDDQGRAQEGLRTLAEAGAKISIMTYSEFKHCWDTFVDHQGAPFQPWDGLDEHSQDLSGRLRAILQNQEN
UniProt Q9HC16, 191-384 L234K/C243A/F310K/C321A/C356A: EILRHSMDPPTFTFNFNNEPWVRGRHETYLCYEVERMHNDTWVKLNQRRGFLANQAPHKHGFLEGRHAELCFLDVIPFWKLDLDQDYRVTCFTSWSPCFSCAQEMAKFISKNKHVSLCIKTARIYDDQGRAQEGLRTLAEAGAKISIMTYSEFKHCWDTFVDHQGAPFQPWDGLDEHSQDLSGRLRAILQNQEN

Experiments:
[1] = biological target: A3GCTD P210R P210R,L234K,C243A,F310K,C321A,C356A (Homo sapiens) (UniProt Q9HC16); experiment: single-turnover deamination kinetics (kobs vs [E], hyperbolic fit); conditions: Kd only in Fig 4D, Kinetic Kd: 20 mM Tris pH 8.0, 1 mM DTT, 37 C, 1-50 uM enzyme, 40 nM DNA, SEC/complex: 50 mM Tris pH 7.0, 100 mM NaCl, recombinant protein, protein details: His6-MBP tag removed by SARS-CoV Mpro, label: 5' 32P, single-stranded DNA
[2] = biological target: A3GCTD WT (A3G191-384-2K3A) L234K,C243A,F310K,C321A,C356A (Homo sapiens) (UniProt Q9HC16); experiment: as above; conditions: Kd only in Fig 4D, P210R binds tighter; Kinetic Kd: 20 mM Tris pH 8.0, 1 mM DTT, 37 C, 1-50 uM enzyme, 40 nM DNA; SEC/complex: 50 mM Tris pH 7.0, 100 mM NaCl; recombinant protein; protein details: His6-MBP tag removed by SARS-CoV Mpro; label: 5' 32P; single-stranded DNA

Row | Sequence | binding result ([1]; affinity decreased vs WT) | binding result [2] | binding result ([1]; affinity increased vs WT)
1 | TAGAAAGGGAGACCCAAAGAGGAAAGGTGA [CCCA 30-mer] | binds more weakly |  | 
2 | TAGAAAGGGAGACCCGAAGAGGAAAGGTGA [CCCG 30-mer] |  | binds | binds
3 | TAGAAAGGGAGACCCTAAGAGGAAAGGTGA [CCCT 30-mer] |  | binds | binds
